# Data as given in the supplement of paper PMC4683952.
# The other results are listed elsewhere or left out. Rule as the data show it: active = 2 or more and inactive = the rest. Most values lie within the scatter of the assay; repeated measurements hardly agree.
# Tested on: Lgr5 (MarsCy1-Lgr5-EGFP, U2OS)
# Assay: cell-surface Lgr5 expression (SCi1 fluorescence, background-subtracted) relative to WT DMSO (fold of DMSO control); higher = more Lgr5 at the plasma membrane
# Details: U2OS MarsCy1-Lgr5-EGFP stable; treatment time: overnight; library: ActiProbe-5K (TimTec); 25 µM
row,Compound,cell-surface Lgr5 expression
1,CCCCN(CCCC)c1nc2c([nH]1)c(=O)[nH]c(=O)n2C,inactive: 1.25
2,S=C1NC2=C(CCc3ccccc32)C(c2ccccc2Cl)N1 (configuration not stated),inactive: 1.31
3,Cc1cccn2c(=O)c(/C=C3/SC(=S)N(CC4CCCO4)C3=O)c(N3CCCC3)nc12 (configuration not stated),inactive: 1.16
4,CC1CCN(c2nc3c(=O)[nH]cnc3n2C2OC(CO)C(O)C2O)CC1 (configuration not stated),inactive: 0.971
5,S=C(c1cccs1)N1CCCC1,inactive: 0.971
6,CC(Nc1nc(F)cc(=O)[nH]1)C(=O)O (configuration not stated),inactive: 1.04
7,O=C(NC1CCCCC1NC(=O)c1ccco1)c1ccco1 (configuration not stated),inactive: 1.19
8,C(/C#N)(C#N)=C/Nc1cc(Cl)c(cc1)F,inactive: 0.827
9,O=C1NC(=O)/C(=C/c2ccc3c(c2)OCO3)S1,inactive: 1.09
10,Cn1cccc1/C=N/n1c(S)nnc1-c1ccco1,inactive: 1.29
11,O=[N+]([O-])c1cc(C(F)(F)F)cc2c1Oc1ccccc1O2,inactive: 1.2
12,Oc1ccc(-c2cnc3cc(F)c(F)cc3n2)c(O)c1O,inactive: 0.688
13,COc1cc(C(c2cc3c(cc2O)OCO3)N2CCCC2)cc(OC)c1OC (configuration not stated),inactive: 1.37
14,CCCCCCCCCCn1c(SCCCC)nc2c1c(=O)[nH]c(=O)n2C,inactive: 1.25
15,c1(/c(nc2ccccc2nc1C)C)=N\OCc1cc(F)ccc1,inactive: 1.18
16,Fc1ccc(Nc2nc3nonc3nc2Nc2ccc(F)cc2)cc1,inactive: 1.23
17,Clc1ccc(-c2nc3ccc4ccccc4c3c3c2CCC3)c(Cl)c1,inactive: 0.712
18,Cc1ccc(S(=O)(=O)c2no[n+]([O-])c2S(=O)(=O)c2ccc(C)cc2)cc1,inactive: 0.941
19,CN1/C(=C/C(=S)C(C)(C)C)Sc2ccccc21,inactive: 0.918
20,CCOc1ncnc2[nH]cnc12,inactive: 1.15
21,Nc1nonc1C(=O)N/N=C\c1ccco1,inactive: 1.09
22,Nc1nonc1-c1nc2ccccc2n1Cc1nnn[nH]1,inactive: 1.39

# Among those listed so far, two contain a carbonyl joined to an NH by a bond outside any ring.
row,Compound,cell-surface Lgr5 expression
7,O=C(NC1CCCCC1NC(=O)c1ccco1)c1ccco1 (configuration not stated),inactive: 1.19
21,Nc1nonc1C(=O)N/N=C\c1ccco1,inactive: 1.09

# The results go on.

row,Compound,cell-surface Lgr5 expression
1,CCOC(=O)C1=C(C)NC(=S)NC1c1ccc(C)s1 (configuration not stated),inactive: 1.22
2,Cc1nnc(SCc2nc(N)nc(N3CCOCC3)n2)s1,inactive: 1.03
3,CS(=O)(=O)c1ccc(Cl)cc1,inactive: 1.52
4,Cc1[nH]nc2c1C(c1ccco1)CC(c1ccco1)=C2 (configuration not stated),inactive: 0.815
5,O=C1C2C3C=CC(C3)C2C(=O)N1c1ccc2c(c1)OCCO2 (configuration not stated),inactive: 0.987
6,CS(=O)(=O)Nc1cc(Cl)ccc1Cl,inactive: 0.954
7,COc1ccc(C2CC3(OCCO3)C3(CCCCC3)O2)cc1 (configuration not stated),inactive: 1.51
8,Nc1nc(-c2cccs2)cs1,inactive: 1.16
9,[N+](c1c(N\N=C2/CCCC2)cccc1)([O-])=O,inactive: 0.848
10,COC(=O)c1cc(=O)n2cccnc2n1,inactive: 1.45
11,Nc1nnnn1NCc1ccco1,inactive: 1.1
12,O=C(NC12CC3CC(CC(C3)C1)C2)c1cccs1,inactive: 1.23
13,OC(C#CC1(O)CCCCC1)c1ccco1 (configuration not stated),inactive: 1.24
14,Brc1ccc(-c2noc(-c3ccc4c(c3)OCO4)n2)o1,inactive: 1.1
15,Cn1c(=O)c2c(ncn2CC(=O)N/N=C/c2ccco2)n(C)c1=O,inactive: 1.16
16,Cc1nn(C)cc1-c1nnc(N)s1,inactive: 1.08
17,Oc1nsnc1N1CCOCC1,inactive: 1.42
18,CCOC(=O)C1=C(C)NC(=O)NC1c1cc(Br)c(Br)o1 (configuration not stated),inactive: 1.16
19,O=c1c(-c2ccccc2)c2sc3ccccc3nc-2c2ccccc12,inactive: 1.33
20,Cc1n(CC(O)COc2ccccc2)c2ccccc2[n+]1C (configuration not stated),inactive: 1.11
21,O=[N+]([O-])c1ccc(O)c(/C=N\c2nnc3n(/N=C/c4cc([N+](=O)[O-])ccc4O)cnn23)c1,inactive: 1.19
22,N#CC1=C(N)C(C#N)(C#N)C(c2ccco2)C2=C1CCCC2 (configuration not stated),inactive: 0.85

row,Compound,cell-surface Lgr5 expression
1,O=c1[nH]c(=O)c2c(Cl)cc(Cl)cc2[nH]1,inactive: 0.937
2,Cc1ccc(/C=C(/C#N)C(N)=S)s1,inactive: 1.55
3,C1(/c2c3c(cccc3C1)ccc2)=C(\C#N)C#N,inactive: 1.27
4,Nc1nc2nc(-c3ccco3)cc(C(F)(F)F)n2n1,inactive: 1.75
5,O=S(=O)(c1cc(Cl)ccc1Cl)N1CCN(C23CC4CC(CC(C4)C2)C3)CC1,inactive: 0.752
6,Cc1ccc2nsnc2c1S(=O)(=O)NCc1ccc(S(N)(=O)=O)cc1,inactive: 1.08
7,C(=C(\Cl)Cl)(/COC(=O)CCCC(NC1CCCCC1)=O)Cl,inactive: 0.995
8,Clc1cc(Cl)cc(N/N=C/c2ccccn2)c1,inactive: 1.41
9,CS(=O)(=O)N1CCc2cc(S(=O)(=O)NC(c3ccccc3)c3ccccc3)ccc21,inactive: 1.04
10,CS(=O)(=O)c1ccc(Br)cc1,active: 2.97
11,Cn1ccnc1CN1CCN(Cc2nccn2C)CC1,inactive: 1.07
12,C/C=C1\CN2CCC34C(=C(/C=N/Nc5ccccc5)C1CC23)Nc1ccccc14 (configuration not stated),inactive: 0.96
13,Oc1ccc(Br)cc1/C=N\CC/N=C/c1cc(Br)ccc1O,inactive: 0.781
14,O=C(Cc1cccs1)N/N=C/C=C/c1ccco1,inactive: 1.02
15,COCc1c(C(=O)O)nnn1-c1nonc1N,inactive: 1.2
16,CN1CC2c3ccccc3OC(c3ccc4c(c3)OCO4)C2([N+](=O)[O-])O1 (configuration not stated),inactive: 1.26
17,N#Cc1sc2nc(-c3cccs3)ccc2c1N,inactive: 1
18,CCOc1cc2c(cc1OCC)C(C1CC=CCC1)NCC2 (configuration not stated),inactive: 1.11
19,O=C(C1=C(O)C(=O)N(CCCN2CCOCC2)C1c1ccco1)c1ccco1 (configuration not stated),inactive: 1.09
20,N#CC1=C(N)C(C#N)(C#N)C(c2cc(Br)cs2)C2CCCC=C12 (configuration not stated),inactive: 1.09
21,Clc1cccc(C2Nc3cccc4cccc(c34)N2)c1,inactive: 0.908
22,O=C1N(CN2CCC3(CC2)OCCO3)c2ccccc2C12OCCCCO2,inactive: 1.25

row,Compound,cell-surface Lgr5 expression
1,O=C(O)c1ccc(Cl)s1,inactive: 1.09
2,c1ccc(Sc2ccc3ccccc3n2)cc1,inactive: 0.695
3,C#CCSc1nc2c(cc1C#N)CCCC2,inactive: 1.62
4,O=c1[nH]c2ccc(Cl)cc2o1,inactive: 1.14
5,CCOc1sc(C)c(C)c(=O)c1N,inactive: 0.971
6,CC1=C(C)N(c2ccccc2)N=C(S)S1,inactive: 1.67
7,COC(=O)c1[nH]nc(-c2n[nH]c(C(=O)OC)c2[N+](=O)[O-])c1[N+](=O)[O-],inactive: 1.13
8,CN(/N=C\c1ccc(OCc2ccccc2)cc1)C1=NS(=O)(=O)c2ccccc21,inactive: 1.06
9,O=C(Cc1cccs1)N/N=C/c1cc(Br)c(Br)o1,inactive: 1.06
10,Nc1c(C(=O)C2CC2)sc2nc3c(cc12)CCCC3,inactive: 1.23
11,O=C(CCC1CCCCC1)Nc1nc2c(s1)CCCCC2,inactive: 1.3
12,CCOC(=O)c1n[nH]c(C(C)(C)C)c1Br,inactive: 1.05
13,Nc1nonc1NC(=O)CSC1=NCCS1,inactive: 1.21
14,Nc1ccc(S(N)(=O)=O)cc1,inactive: 1.21
15,NNC(=O)CCCCC1SCC2NC(=O)NC21 (configuration not stated),inactive: 1.09
16,Cn1cccc1/C=C(/C#N)C(N)=O,inactive: 1.54
17,c1cc(CCCc2ccncc2)ccn1,inactive: 0.881
18,CNC(=O)c1c(NC(=O)c2cccs2)sc2c1CCCC2,inactive: 1.24
19,O=C(O)C1CCCN1S(=O)(=O)c1ccc(Br)s1 (configuration not stated),inactive: 1.18
20,Clc1ccc(Cl)c(-c2nc3ccccc3o2)n1,inactive: 1.68
21,Cn1ncc([N+](=O)[O-])c1C(=O)NNC(=S)NC1CC1,inactive: 1.32
22,c1ccc2[nH]c(CSc3nc4ccccc4[nH]3)nc2c1,inactive: 1.15

# Single entries from the entries so far.
# In cell-surface Lgr5 expression, c1ccc(Sc2ccc3ccccc3n2)cc1 has the entry inactive: 0.695
# In cell-surface Lgr5 expression, c1cc(CCCc2ccncc2)ccn1 has the entry inactive: 0.881

# (listing goes on)

row,Compound,cell-surface Lgr5 expression
1,N=c1[nH]c(=O)c2ncn([C@H]3C[C@H](O)[C@@H](CO)O3)c2[nH]1,inactive: 0.867
2,O=S(=O)(c1cccc2nsnc12)N1CCN(C(c2ccccc2)c2ccccc2)CC1,inactive: 0.888
3,Nc1cc(=O)[nH]c(=S)n1C1CCCC1,inactive: 0.982
4,CNC(=S)N1CCOCC1,inactive: 0.906
5,O=c1ccc2nc3ccc([O-])cc3oc-2c1,inactive: 0.746
6,Nc1ccc2nn(-c3cccc4ccccc34)nc2c1,inactive: 0.936
7,Cn1c(=O)c2[nH]c(Br)c(Br)c2n(C)c1=O,inactive: 0.937
8,Cc1nc2sc(-c3ccon3)c(N)c2c(C)c1Cl,inactive: 1.04
9,s1cc(cc1/C=C(\C#N)C#N)CSc1n(nnn1)C,inactive: 0.859
10,Cc1nn(CCCN2C(=O)CS/C2=N\C2CC2)c(C)c1Br,inactive: 1.35
11,Cn1nc(C2CC2)c2c(C(F)F)cc(-c3ccc4c(c3)OCO4)nc21,inactive: 1.22
12,[Cl-].[NH3+]Cc1c(F)cc(F)c(F)c1F,inactive: 1.26
13,N(C)(c1ccccc1)C(/N=C(\N)N)=N,inactive: 1.23
14,ClCCOc1nc(OCCCl)nc(OCCCl)n1,inactive: 1.25
15,Nc1ncnc2oc(-c3ccoc3)c(-c3ccco3)c12,inactive: 0.782
16,COc1ccc(Cl)cc1NS(=O)(=O)N(C)C,inactive: 0.867
17,Cc1cc(-n2nc(N)nc2N)n2ncnc2n1,inactive: 1.29
18,O=C(N/N=C/c1cccs1)c1ccco1,inactive: 1.05
19,Cc1[nH]nc2c1C(C(C)C)C(C#N)=C(N)O2 (configuration not stated),inactive: 0.917

# Structural class, the entries above with a CF3 group (two)
row,Compound,cell-surface Lgr5 expression
11,O=[N+]([O-])c1cc(C(F)(F)F)cc2c1Oc1ccccc1O2,inactive: 1.2
4,Nc1nc2nc(-c3ccco3)cc(C(F)(F)F)n2n1,inactive: 1.75
